According to the supplement of paper PMC8728848:
Some of the results follow.

What was measured:
Test in all cases: glycan array binding signal (z-score within array); higher = stronger binding
Details in all cases: glycan notation: IUPAC condensed, linker removed
[1] = target: Neu5Ac(a2-3)Gal(b1-3)GlcNAc(b1-2)Man(a1-3)[GlcNAc(b1-4)][Neu5Ac(a2-3)Gal(b1-3)GlcNAc(b1-2)Man(a1-6)]Man(b1-4)GlcNAc(b1-4)GlcNAc
Method in brief: (§1)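 From the Consortium for Functional Glycomics database, 3228 arrays were curated, keeping only those whose protein sequence was available. Binding is given as a within-array Z-score averaged across arrays sharing a protein sequence and across linkers. Negative Z-scores can be read as non-binding.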

[2] = target: Neu5Ac(a2-3)Gal(b1-3)GlcNAc(b1-2)Man(a1-3)[Neu5Ac(a2-3)Gal(b1-3)GlcNAc(b1-2)Man(a1-6)]Man(b1-4)GlcNAc(b1-4)GlcNAc
Method in brief: as §1

[3] = target: Neu5Ac(a2-3)Gal(b1-3)GlcNAc(b1-3)Gal(b1-3)GlcNAc
Method in brief: as §1

[4] = target: Neu5Ac(a2-3)Gal(b1-3)GlcNAc(b1-3)Gal(b1-4)GlcNAc
Method in brief: as §1

[5] = target: Neu5Ac(a2-3)Gal(b1-3)GlcNAc(b1-3)GalNAc
Method in brief: as §1

[6] = target: Neu5Ac(a2-3)Gal(b1-3)GlcNAc(b1-4)Gal(b1-4)Glc
Method in brief: as §1

[7] = target: Neu5Ac(a2-3)Gal(b1-3)GlcNAc(b1-6)GalNAc
Method in brief: as §1

[8] = target: Neu5Ac(a2-3)Gal(b1-3)GlcNAc6S
Method in brief: as §1

[9] = target: Neu5Ac(a2-3)Gal(b1-3)[Fuc(a1-4)]GlcNAc
Method in brief: as §1

[10] = target: Neu5Ac(a2-3)Gal(b1-3)[Fuc(a1-4)]GlcNAc(b1-3)Gal(b1-3)[Fuc(a1-4)]GlcNAc
Method in brief: as §1

[11] = target: Neu5Ac(a2-3)Gal(b1-3)[Fuc(a1-4)]GlcNAc(b1-3)Gal(b1-4)[Fuc(a1-3)]GlcNAc
Method in brief: as §1

[12] = target: Neu5Ac(a2-3)Gal(b1-3)[GlcNAc(b1-6)]GalNAc
Method in brief: as §1

[13] = target: Neu5Ac(a2-3)Gal(b1-3)[Neu5Ac(a2-6)]GalNAc
Method in brief: as §1

[14] = target: Neu5Ac(a2-3)Gal(b1-3)[Neu5Ac(a2-6)]GlcNAc(b1-3)[Fuc(a1-3)[Gal(b1-4)]GlcNAc(b1-6)]Gal(b1-4)Glc
Method in brief: as §1

[15] = target: Neu5Ac(a2-3)Gal(b1-3)]Neu5Ac(a2-3)Gal(b1-4)]GlcNAc
Method in brief: as §1

[16] = target: Neu5Ac(a2-3)Gal(b1-4)Glc
Method in brief: as §1

[17] = target: Neu5Ac(a2-3)Gal(b1-4)GlcNAc
Method in brief: as §1

[18] = target: Neu5Ac(a2-3)Gal(b1-4)GlcNAc(b1-2)Man
Method in brief: as §1

[19] = target: Neu5Ac(a2-3)Gal(b1-4)GlcNAc(b1-2)Man(a1-3)[GlcNAc(b1-4)][Neu5Ac(a2-3)Gal(b1-4)GlcNAc(b1-2)Man(a1-6)]Man(b1-4)GlcNAc(b1-4)GlcNAc
Method in brief: as §1

[20] = target: Neu5Ac(a2-3)Gal(b1-4)GlcNAc(b1-2)Man(a1-3)[Neu5Ac(a2-3)Gal(b1-4)GlcNAc(b1-2)Man(a1-6)]Man(b1-4)GlcNAc(b1-4)GlcNAc
Method in brief: as §1

[21] = target: Neu5Ac(a2-3)Gal(b1-4)GlcNAc(b1-2)Man(a1-3)[Neu5Ac(a2-3)Gal(b1-4)GlcNAc(b1-2)Man(a1-6)]Man(b1-4)GlcNAc(b1-4)[Fuc(a1-6)]GlcNAc
Method in brief: as §1

[22] = target: Neu5Ac(a2-3)Gal(b1-4)GlcNAc(b1-2)Man(a1-3)[Neu5Ac(a2-6)Gal(b1-4)GlcNAc(b1-2)Man(a1-6)]Man(b1-4)GlcNAc(b1-4)GlcNAc
Method in brief: as §1

[23] = target: Neu5Ac(a2-3)Gal(b1-4)GlcNAc(b1-2)[Neu5Ac(a2-3)Gal(b1-4)GlcNAc(b1-4)]Man(a1-3)[GlcNAc(b1-4)][Neu5Ac(a2-3)Gal(b1-4)GlcNAc(b1-2)[Neu5Ac(a2-3)Gal(b1-4)GlcNAc(b1-6)]Man(a1-6)]Man(b1-4)GlcNAc(b1-4)GlcNAc
Method in brief: as §1

[24] = target: Neu5Ac(a2-3)Gal(b1-4)GlcNAc(b1-2)[Neu5Ac(a2-3)Gal(b1-4)GlcNAc(b1-4)]Man(a1-3)[GlcNAc(b1-4)][Neu5Ac(a2-3)Gal(b1-4)GlcNAc(b1-4)Man(a1-6)]Man(b1-4)GlcNAc(b1-4)GlcNAc
Method in brief: as §1

[25] = target: Neu5Ac(a2-3)Gal(b1-4)GlcNAc(b1-2)[Neu5Ac(a2-3)Gal(b1-4)GlcNAc(b1-6)]Man(a1-6)[Neu5Ac(a2-3)Gal(b1-4)GlcNAc(b1-2)Man(a1-3)]Man(b1-4)GlcNAc(b1-4)GlcNAc
Method in brief: as §1

[26] = target: Neu5Ac(a2-3)Gal(b1-4)GlcNAc(b1-2)[Neu5Ac(a2-3)Gal(b1-4)GlcNAc(b1-6)]Man(a1-6)[Neu5Ac(a2-3)Gal(b1-4)GlcNAc(b1-2)Man(a1-3)][GlcNAc(b1-4)]Man(b1-4)GlcNAc(b1-4)GlcNAc
Method in brief: as §1

[27] = target: Neu5Ac(a2-3)Gal(b1-4)GlcNAc(b1-3)Gal
Method in brief: as §1

[28] = target: Neu5Ac(a2-3)Gal(b1-4)GlcNAc(b1-3)Gal(b1-3)GlcNAc
Method in brief: as §1

[29] = target: Neu5Ac(a2-3)Gal(b1-4)GlcNAc(b1-3)Gal(b1-4)GlcNAc
Method in brief: as §1

[30] = target: Neu5Ac(a2-3)Gal(b1-4)GlcNAc(b1-3)Gal(b1-4)GlcNAc(b1-2)Man(a1-3)[Neu5Ac(a2-3)Gal(b1-4)GlcNAc(b1-3)Gal(b1-4)GlcNAc(b1-2)Man(a1-6)]Man(b1-4)GlcNAc(b1-4)GlcNAc
Method in brief: as §1

[31] = target: Neu5Ac(a2-3)Gal(b1-4)GlcNAc(b1-3)Gal(b1-4)GlcNAc(b1-3)Gal(b1-4)GlcNAc
Method in brief: as §1

[32] = target: Neu5Ac(a2-3)Gal(b1-4)GlcNAc(b1-3)Gal(b1-4)GlcNAc(b1-3)Gal(b1-4)GlcNAc(b1-2)Man(a1-3)[Neu5Ac(a2-3)Gal(b1-4)GlcNAc(b1-3)Gal(b1-4)GlcNAc(b1-3)Gal(b1-4)GlcNAc(b1-2)Man(a1-6)]GalNAc
Method in brief: as §1

[33] = target: Neu5Ac(a2-3)Gal(b1-4)GlcNAc(b1-3)Gal(b1-4)GlcNAc(b1-3)GalNAc
Method in brief: as §1

[34] = target: Neu5Ac(a2-3)Gal(b1-4)GlcNAc(b1-3)Gal(b1-4)GlcNAc(b1-3)[Neu5Ac(a2-3)Gal(b1-4)GlcNAc(b1-3)Gal(b1-4)GlcNAc(b1-6)]GalNAc
Method in brief: as §1

[35] = target: Neu5Ac(a2-3)Gal(b1-4)GlcNAc(b1-3)Gal(b1-4)GlcNAc(b1-6)[Gal(b1-3)]GalNAc
Method in brief: as §1

[36] = target: Neu5Ac(a2-3)Gal(b1-4)GlcNAc(b1-3)Gal(b1-4)[Fuc(a1-3)]GlcNAc
Method in brief: as §1

[37] = target: Neu5Ac(a2-3)Gal(b1-4)GlcNAc(b1-3)GalNAc
Method in brief: as §1

[38] = target: Neu5Ac(a2-3)Gal(b1-4)GlcNAc(b1-3)[Neu5Ac(a2-3)Gal(b1-4)GlcNAc(b1-6)]GalNAc
Method in brief: as §1

B1: HopZSSI-T (Helicobacter pylori), B5Z6D0 (protein)
chain: MGSSHHHHHHSSGLVPRGSHMENLYFQGEDNGFFISAGYQIGEAAQMVKNTGELKKLSDTYENLSNLLTNFNNLNQAVTNASSPSEINAAIDNLKANTQGLTGEKTNSPAYQAVYLALNAAVGLWNVIAYNVQCGPGNSSQQSVTFEGQPGHNSSSINCNLTGYNNGVSGPLSIDNFKQLNQAYQVLQQALKQGVPVLNNTNQKIEVKVTTQTNGQSSKETTTTTTTNDAQTLLQEASKMIDVLTTNCPWVNHNPGQNGGAPWGLIRQECVSGFATEFSAVTSMIKNAQEIVTQAQSLNANQNNQNAPQDFNPYTSADRAFAQNMLNHAQAQAKILELADQMKKDLNTIPSQFITNYLAACRIDGTTPSQGVTNNTWGAGCAYVEETITALNNSLAHFGTQAEQIKQSELLARTILDFRGSLSTLNSTYNSITTTASNTPNSPFLKNLISQSTNPNNPGGLQAVYQVNQSAYSQLLSATQELGHNPFRRIGLISSQT
- glycan array binding signal (z-score) [1]: -0.416
- glycan array binding signal (z-score) [2]: -0.396
- glycan array binding signal (z-score) [3]: 0.034
- glycan array binding signal (z-score) [4]: 0.13
- glycan array binding signal (z-score) [5]: -0.249
- glycan array binding signal (z-score) [6]: 0.086
- glycan array binding signal (z-score) [7]: 0.672
- glycan array binding signal (z-score) [8]: 0.73
- glycan array binding signal (z-score) [9]: -0.514
- glycan array binding signal (z-score) [10]: -0.391
- glycan array binding signal (z-score) [11]: -0.238
- glycan array binding signal (z-score) [12]: -0.325
- glycan array binding signal (z-score) [13]: 0.098
- glycan array binding signal (z-score) [14]: -0.611
- glycan array binding signal (z-score) [15]: -0.452
- glycan array binding signal (z-score) [16]: -0.114
- glycan array binding signal (z-score) [17]: 0.173
- glycan array binding signal (z-score) [18]: 0.254
- glycan array binding signal (z-score) [19]: -0.08
- glycan array binding signal (z-score) [20]: 0.179
- glycan array binding signal (z-score) [21]: -0.036
- glycan array binding signal (z-score) [22]: -0.163
- glycan array binding signal (z-score) [23]: -0.433
- glycan array binding signal (z-score) [24]: -0.259
- glycan array binding signal (z-score) [25]: -0.473
- glycan array binding signal (z-score) [26]: 0.342
- glycan array binding signal (z-score) [27]: -0.109
- glycan array binding signal (z-score) [28]: -0.736
- glycan array binding signal (z-score) [29]: -0.406
- glycan array binding signal (z-score) [30]: 0.139
- glycan array binding signal (z-score) [31]: -0.091
- glycan array binding signal (z-score) [32]: 1.3
- glycan array binding signal (z-score) [33]: -0.425
- glycan array binding signal (z-score) [34]: -0.56
- glycan array binding signal (z-score) [35]: 0.966
- glycan array binding signal (z-score) [36]: 0.1
- glycan array binding signal (z-score) [37]: -0.423
- glycan array binding signal (z-score) [38]: 0.302
